Reference: patent publication US11261166B2, “Lipophilic macrocyclic ligands, complexes thereof, and uses of same” (GUERBET, priority 2017, dated 2022)

test: Radiolabeling of ligands G with yttrium 90 (radiolabeling yield); details: yttrium-90 chloride in acetate buffer pH=7 + ligand 10^-3 mol/L in ethanol, 90° C., 30 min
Method: “Radiolabeling yield” means the amount of radioactivity present in the form of a complex after the step of radiolabeling a ligand. This amount is expressed as a percentage of the radioactivity initially used expressed in curie or in becquerel.
Quality controls were performed by TLC on Whatman 1 paper, with MeOH/NEt3 0.1% mixture as eluent. The RadioChemical Purity (RCP) is determined using a Cyclone phosphoimager (Perkin Elmer), and processed with Optiquant software.
1 mL of yttrium-90 chloride in solution in an acetate buffer pH=7 is added to 1 mL of ligand G in solution in ethanol at a concentration of 10^−3 mol/L. The solution is heated at 90° C. for 30 min. The yttrium 90 complex J is thus obtained.

Row | Structure (SMILES) | Radiolabeling yield [%]
1 | CCCCCCCCc1ccc(CN2CCN(C(CCCCCCCC)C(=O)O)CCN(C(CCCCCCCC)C(=O)O)CCN(C(CCCCCCCC)C(=O)O)CC2)cc1 (stereo not drawn) [Ligand G7] | 36.3
2 | CCCCCCCCC(C(=O)O)N1CCN(Cc2cc(C(F)(F)F)cc(C(F)(F)F)c2)CCN(C(CCCCCCCC)C(=O)O)CCN(C(CCCCCCCC)C(=O)O)CC1 (stereo not drawn) [Ligand G4] | 96
3 | O=C(O)C(CCc1ccccc1)N1CCN(Cc2ccc(-c3ccccc3)cc2)CCN(C(CCc2ccccc2)C(=O)O)CCN(C(CCc2ccccc2)C(=O)O)CC1 (stereo not drawn) [Ligand G10] | 90
4 | CCCCCCCCC(C(=O)O)N1CCN(Cc2ccc(-c3ccccc3)cc2)CCN(C(CCCCCCCC)C(=O)O)CCN(C(CCCCCCCC)C(=O)O)CC1 (stereo not drawn) [Ligand G6] | 97.9
5 | CCCCCCCCCCC(C(=O)O)N1CCN(Cc2cc(C(C)(C)C)cc(C(C)(C)C)c2)CCN(C(CCCCCCCCCC)C(=O)O)CCN(C(CCCCCCCCCC)C(=O)O)CC1 (stereo not drawn) [Ligand G1iso4] | 95.5
6 | CCCCCCCCC(C(=O)O)N1CCN(Cc2cc(C(C)(C)C)cc(C(C)(C)C)c2)CCN(C(CCCCCCCC)C(=O)O)CCN(C(CCCCCCCC)C(=O)O)CC1 (stereo not drawn) [Ligand G3] | 97.4
7 | CCCCCCCCC(C(=O)O)N1CCN(Cc2ccc(CCc3ccccc3)cc2)CCN(C(CCCCCCCC)C(=O)O)CCN(C(CCCCCCCC)C(=O)O)CC1 (stereo not drawn) [Ligand G5] | 98.7
8 | CCCCCCCCCCC(C(=O)O)N1CCN(Cc2cc(C(C)(C)C)cc(C(C)(C)C)c2)CCN(C(CCCCCCCCCC)C(=O)O)CCN(C(CCCCCCCCCC)C(=O)O)CC1 (stereo not drawn) [Ligand G1iso3] | 81.5
9 | CCCCCCCCc1ccc(-c2ccc(CCN3CCN(C(CCCCCCCC)C(=O)O)CCN(C(CCCCCCCC)C(=O)O)CCN(C(CCCCCCCC)C(=O)O)CC3)cc2)cc1 (stereo not drawn) [Ligand G12] | 35.7
10 | CCCCCCCCC(C(=O)O)N1CCN(CCc2ccc(-c3ccc(CCCCC)cc3)cc2)CCN(C(CCCCCCCC)C(=O)O)CCN(C(CCCCCCCC)C(=O)O)CC1 (stereo not drawn) [Ligand G11] | 76.5
11 | CCCCCCCCCCC(C(=O)O)N1CCN(Cc2cc(C(C)(C)C)cc(C(C)(C)C)c2)CCN(C(CCCCCCCCCC)C(=O)O)CCN(C(CCCCCCCCCC)C(=O)O)CC1 (stereo not drawn) [Ligand G1iso2] | 94.4
12 | CCCCCCCCCCC(C(=O)O)N1CCN(Cc2cc(C(C)(C)C)cc(C(C)(C)C)c2)CCN(C(CCCCCCCCCC)C(=O)O)CCN(C(CCCCCCCCCC)C(=O)O)CC1 (stereo not drawn) [Ligand G1iso1] | 89
13 | CCCCCCC(C(=O)O)N1CCN(Cc2ccc(CCc3ccccc3)cc2)CCN(C(CCCCCC)C(=O)O)CCN(C(CCCCCC)C(=O)O)CC1 (stereo not drawn) [Ligand G9] | 82.3
14 | CCCCCCCCCCC(C(=O)O)N1CCN(Cc2ccc(CCCCCCCC)cc2)CCN(C(CCCCCCCCCC)C(=O)O)CCN(C(CCCCCCCCCC)C(=O)O)CC1 (stereo not drawn) [Ligand G2] | 14.1
15 | CCCCCCCCc1ccc(CN2CCN(C(CCCCCC)C(=O)O)CCN(C(CCCCCC)C(=O)O)CCN(C(CCCCCC)C(=O)O)CC2)cc1 (stereo not drawn) [Ligand G8] | 78.8
